These results are taken from paper PMC3314957.

Assay [1] addresses T1, Salmonella guanine nucleotide exchange factor (GEF) SopE (Salmonella enterica serovar Typhimurium) (UniProt O52623).
T1 sequence: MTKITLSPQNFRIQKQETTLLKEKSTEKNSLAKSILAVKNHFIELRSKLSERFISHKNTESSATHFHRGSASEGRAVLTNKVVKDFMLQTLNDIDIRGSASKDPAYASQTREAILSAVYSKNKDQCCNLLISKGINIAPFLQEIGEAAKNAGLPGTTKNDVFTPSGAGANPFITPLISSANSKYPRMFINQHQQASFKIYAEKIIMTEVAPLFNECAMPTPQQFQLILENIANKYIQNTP
Briefly: pull-down; PL beads decorated with purified SopE or ARNO in porcine brain extract with GTPγS that was preincubated with purified PBD or GAT; Coomassie-stained SDS-PAGE of the bead-bound proteins; both purified.

Assay [2] addresses T1, Salmonella guanine nucleotide exchange factor (GEF) SopE (Salmonella enterica serovar Typhimurium). Kind of assay: pull-down; purified GEF (SopE, ARNO or ARNO E156D) bound on silica beads coated with a phospholipid bilayer (PL beads), incubated in porcine brain extract with GTPγS (20 min, RT); beads isolated at 1000 g, washed ten times in HKSM; recruited proteins analysed by SDS-PAGE, mass spectrometry and immunoblotting; only the target purified. (In general: Immunoblotting shows a protein as a band on a membrane.)

Results are given in words; binding and its absence hold for the method and conditions named. Binding seen in cells or lysates may run through a third protein. For some assays here: A result given as binding can be weak or reduced; the word gives no strength.

Take GAT^165–314 (domain or fragment): the binding entry in assay [1] is on record as “no binding”. Take Rac1: the binding entry in assay [2] is reported as “binds”.
